Measurements from “University of Dundee, Small-Polar-MMV Screening Library” (2021), ChEMBL document CHEMBL3988442.

Sequences of proteins named here, by UniProt entry; tags and fusion partners are left off.
UniProt P9WFT3, whole entry: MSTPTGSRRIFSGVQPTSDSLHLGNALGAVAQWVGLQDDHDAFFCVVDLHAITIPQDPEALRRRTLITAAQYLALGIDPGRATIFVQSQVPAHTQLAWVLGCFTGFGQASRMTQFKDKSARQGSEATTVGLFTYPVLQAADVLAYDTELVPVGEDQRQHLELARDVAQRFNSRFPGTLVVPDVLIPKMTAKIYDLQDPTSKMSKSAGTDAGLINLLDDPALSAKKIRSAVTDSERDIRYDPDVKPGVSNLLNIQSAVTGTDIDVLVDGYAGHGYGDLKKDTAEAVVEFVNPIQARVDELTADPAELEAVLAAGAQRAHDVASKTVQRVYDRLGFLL

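Enzyme assay of tryptophanyl-tRNA synthetase; the read-out is not stated. Target: Tryptophan-tRNA ligase, Mycobacterium tuberculosis (UniProt P9WFT3). Compounds at 10 µM. Higher most likely means stronger inhibition; the record gives no direction and few retests gave an IC50. Size under these conditions: about 65,000 compounds, about 64 of them at 50% or above in at least one test.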

Results are given as percent effect.
The controls that fix the scale are not given in the record; negative values are as filed.
Compounds were drawn at random from those tested, without regard to their results.

COc1ccc(CN(C)Cc2c(C)noc2C)c(Br)c1OC gave 1.354%. O=C(NCCCn1ccnc1)N1CCCC1c1ccsc1 (stereo not shown) gave 12.03%. Result for CC(C)CCN1CC2(CCCN(C(=O)NCc3cccs3)C2)CCC1=O (stereo not shown) was -1.043%. With CC(C)NC[C@@]1(COc2ccccc2)C[C@@H](O)[C@@H](O)C1 the screen gave 0.2259%.

Cc1nccn1CCCN1CCCC(c2nccn2CC2CCC2)C1 (stereo not shown) read 4.391%. CC(=O)N1CCC(N2C[C@@H](F)[C@@H](OCc3nc4ncccc4[nH]3)C2)CC1 read -0.3794%. O=C(CCc1cc(O)no1)N1CCCC(OCc2cccnc2)C1 (stereo not shown) read 1.097%. With CC(C)N(C)C(=O)CN1C(=O)OC[C@@H]1c1ccccc1 the screen gave 4.503%.

Cc1nc(Cn2cnc3c(c(Br)nn3C)c2=O)cs1 read 6.299%. Cc1oc2nc[nH]c(=O)c2c1C(=O)N1CCCC(n2cccn2)C1 (stereo not shown) gave 2.786%. CC(=O)N1[C@@H](C(=O)NCC2CC2)C[C@@H]2CN(Cc3nccs3)C[C@@H]21 read -4.312%. Cc1cc(NCCc2c(C)n[nH]c2C)nc(-c2cccnc2)n1 read 5.45%.

CCCN1CCC(N2CCN(c3cccc(C)n3)CC2)CC1 gave -0.07886%. Oc1cc(-c2ccsc2)nc(C2CCN(Cc3cccnc3)CC2)n1 gave -3.184%. Result for COc1cc(F)cc2sc(NC(=O)COCC3CCCO3)nc12 (stereo not shown) was 6.851%. Result for Cc1nc(CNC(=O)C(C)(C)c2ccc(F)cc2)no1 was -5.877%.

With Cc1cc(C(=O)N(CC(F)(F)F)C2CCOCC2)c(C)o1 the screen gave 7.417%. Cc1ccc(CN2CCCC3(CCCC(=O)N3C)C2)s1 (stereo not shown) read -10.22%. For O=C(CSc1nnc(N2CCNCC2)s1)Nc1ccccc1 the result was -4.079%. NC(=O)C1CCN(C(=O)NCc2ccccc2Cn2cncn2)CC1 gave -5.96%.

Result for NCC1CCCCN1C(=O)Cc1cccc(Br)c1 (stereo not shown) was 2.386%. CCn1cnnc1CNC(=O)c1ccc(Cl)cc1I gave -5.367%. For O=C(c1ccc(-n2ccnc2)nn1)N1CCCCC1Cn1cccn1 (stereo not shown) the result was -9.372%. Result for CCOc1cc(CNC(C)c2sccc2C)ccn1 (stereo not shown) was 0.9709%.

For COc1ccc2c(c1)OCC(CNC(=O)CCc1c(C)n[nH]c1C)C2 (stereo not shown) the result was -2.252%. For OC1CCN(c2ccnc(NCCc3ccccc3Cl)n2)C1 (stereo not shown) the result was 1.36%. CCCC(=O)NS(=O)(=O)c1ccc(C#N)c(C(F)(F)F)c1 gave 2.97%. COc1ccc(C2CN(c3nc(C)cc(C)n3)CCN2C(C)=O)cc1 (stereo not shown) read -3.034%.

With COc1cc(Cl)ccc1CNC(=O)N(C)C(C)CS(C)(=O)=O (stereo not shown) the screen gave 2.687%. CC(=O)N1CCN(C2CCCCc3ccccc32)CC1 (stereo not shown) read -2.773%. CCn1nccc1CNC(=O)C1CCCO1 (stereo not shown) gave 7.168%. For CCN1CCO[C@@H]2CN(C(=O)c3cocn3)C[C@@H]2C1 the result was 6.05%.

Result for Cc1nc(C(NC(=O)C2CCCC2)c2ccccc2F)no1 (stereo not shown) was -5.206%. CN(C)CCNC(=O)CCn1ncc2c(Cl)cccc21 read 3.238%. Result for COCCCN1CCCN(C(C)c2nc(C3CC3)no2)CC1 (stereo not shown) was -0.8746%.

For reference, 3 entries once more:

{"compound": "Cc1cc(NCCc2c(C)n[nH]c2C)nc(-c2cccnc2)n1", "effect": 5.45}
{"compound": "OC1CCN(c2ccnc(NCCc3ccccc3Cl)n2)C1", "stereo": "stereo not shown", "effect": 1.36}
{"compound": "CC(C)N(C)C(=O)CN1C(=O)OC[C@@H]1c1ccccc1", "effect": 4.503}